Primary screen of a compound library

The chains behind the UniProt entries cited, without tags or fusion partners. Residues count along the entry.
UniProt P9WPC5, whole entry: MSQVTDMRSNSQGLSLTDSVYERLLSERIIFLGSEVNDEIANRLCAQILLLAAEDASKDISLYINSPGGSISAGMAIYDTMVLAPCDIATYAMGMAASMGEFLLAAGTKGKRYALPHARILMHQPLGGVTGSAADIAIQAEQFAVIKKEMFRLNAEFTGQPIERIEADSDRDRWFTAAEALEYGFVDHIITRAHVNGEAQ
UniProt P9WPC3, whole entry partner: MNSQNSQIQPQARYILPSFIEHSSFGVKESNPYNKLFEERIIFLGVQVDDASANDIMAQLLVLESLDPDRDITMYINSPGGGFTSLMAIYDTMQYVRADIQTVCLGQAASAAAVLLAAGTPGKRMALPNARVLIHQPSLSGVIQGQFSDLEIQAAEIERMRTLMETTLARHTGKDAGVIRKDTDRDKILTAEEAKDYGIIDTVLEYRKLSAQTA
UniProt Q4DA54, 1-478: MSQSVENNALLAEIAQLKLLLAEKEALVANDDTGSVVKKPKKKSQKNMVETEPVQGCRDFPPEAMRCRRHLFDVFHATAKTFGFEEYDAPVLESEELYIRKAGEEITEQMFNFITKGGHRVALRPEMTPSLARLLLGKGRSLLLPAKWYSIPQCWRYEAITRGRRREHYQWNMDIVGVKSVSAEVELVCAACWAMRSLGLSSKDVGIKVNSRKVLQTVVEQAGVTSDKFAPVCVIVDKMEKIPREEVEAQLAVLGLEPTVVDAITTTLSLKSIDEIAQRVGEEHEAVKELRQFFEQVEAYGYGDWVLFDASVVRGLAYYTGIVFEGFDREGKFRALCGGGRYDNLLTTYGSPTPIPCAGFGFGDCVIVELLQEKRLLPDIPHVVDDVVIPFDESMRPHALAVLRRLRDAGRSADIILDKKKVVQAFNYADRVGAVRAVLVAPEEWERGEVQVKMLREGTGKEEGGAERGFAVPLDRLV
UniProt Q8IDJ8, 1-583: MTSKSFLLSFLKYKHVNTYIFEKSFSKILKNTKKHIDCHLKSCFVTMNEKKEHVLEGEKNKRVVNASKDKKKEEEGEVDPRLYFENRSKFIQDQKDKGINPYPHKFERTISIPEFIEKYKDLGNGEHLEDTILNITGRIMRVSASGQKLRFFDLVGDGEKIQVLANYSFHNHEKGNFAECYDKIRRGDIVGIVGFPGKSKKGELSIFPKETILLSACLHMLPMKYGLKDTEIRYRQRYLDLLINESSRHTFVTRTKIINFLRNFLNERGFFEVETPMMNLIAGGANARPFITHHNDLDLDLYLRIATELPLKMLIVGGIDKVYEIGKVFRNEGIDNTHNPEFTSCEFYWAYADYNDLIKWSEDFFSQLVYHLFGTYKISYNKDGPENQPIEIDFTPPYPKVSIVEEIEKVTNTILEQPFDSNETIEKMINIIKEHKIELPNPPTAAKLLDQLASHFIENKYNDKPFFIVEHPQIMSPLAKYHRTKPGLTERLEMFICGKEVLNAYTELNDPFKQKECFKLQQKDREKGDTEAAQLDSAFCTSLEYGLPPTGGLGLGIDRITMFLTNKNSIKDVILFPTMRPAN
UniProt P9WNZ1, whole entry: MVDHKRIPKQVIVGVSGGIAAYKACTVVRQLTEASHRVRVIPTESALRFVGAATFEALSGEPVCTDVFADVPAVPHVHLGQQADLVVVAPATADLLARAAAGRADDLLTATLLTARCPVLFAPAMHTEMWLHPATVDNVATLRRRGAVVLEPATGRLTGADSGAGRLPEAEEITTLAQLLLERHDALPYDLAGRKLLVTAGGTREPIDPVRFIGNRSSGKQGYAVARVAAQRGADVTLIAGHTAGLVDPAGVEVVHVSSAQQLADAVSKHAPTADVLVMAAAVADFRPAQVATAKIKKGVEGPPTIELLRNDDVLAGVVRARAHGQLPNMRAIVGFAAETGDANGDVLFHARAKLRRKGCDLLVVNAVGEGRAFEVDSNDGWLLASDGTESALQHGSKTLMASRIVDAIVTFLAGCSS
UniProt I6X8D2, whole entry: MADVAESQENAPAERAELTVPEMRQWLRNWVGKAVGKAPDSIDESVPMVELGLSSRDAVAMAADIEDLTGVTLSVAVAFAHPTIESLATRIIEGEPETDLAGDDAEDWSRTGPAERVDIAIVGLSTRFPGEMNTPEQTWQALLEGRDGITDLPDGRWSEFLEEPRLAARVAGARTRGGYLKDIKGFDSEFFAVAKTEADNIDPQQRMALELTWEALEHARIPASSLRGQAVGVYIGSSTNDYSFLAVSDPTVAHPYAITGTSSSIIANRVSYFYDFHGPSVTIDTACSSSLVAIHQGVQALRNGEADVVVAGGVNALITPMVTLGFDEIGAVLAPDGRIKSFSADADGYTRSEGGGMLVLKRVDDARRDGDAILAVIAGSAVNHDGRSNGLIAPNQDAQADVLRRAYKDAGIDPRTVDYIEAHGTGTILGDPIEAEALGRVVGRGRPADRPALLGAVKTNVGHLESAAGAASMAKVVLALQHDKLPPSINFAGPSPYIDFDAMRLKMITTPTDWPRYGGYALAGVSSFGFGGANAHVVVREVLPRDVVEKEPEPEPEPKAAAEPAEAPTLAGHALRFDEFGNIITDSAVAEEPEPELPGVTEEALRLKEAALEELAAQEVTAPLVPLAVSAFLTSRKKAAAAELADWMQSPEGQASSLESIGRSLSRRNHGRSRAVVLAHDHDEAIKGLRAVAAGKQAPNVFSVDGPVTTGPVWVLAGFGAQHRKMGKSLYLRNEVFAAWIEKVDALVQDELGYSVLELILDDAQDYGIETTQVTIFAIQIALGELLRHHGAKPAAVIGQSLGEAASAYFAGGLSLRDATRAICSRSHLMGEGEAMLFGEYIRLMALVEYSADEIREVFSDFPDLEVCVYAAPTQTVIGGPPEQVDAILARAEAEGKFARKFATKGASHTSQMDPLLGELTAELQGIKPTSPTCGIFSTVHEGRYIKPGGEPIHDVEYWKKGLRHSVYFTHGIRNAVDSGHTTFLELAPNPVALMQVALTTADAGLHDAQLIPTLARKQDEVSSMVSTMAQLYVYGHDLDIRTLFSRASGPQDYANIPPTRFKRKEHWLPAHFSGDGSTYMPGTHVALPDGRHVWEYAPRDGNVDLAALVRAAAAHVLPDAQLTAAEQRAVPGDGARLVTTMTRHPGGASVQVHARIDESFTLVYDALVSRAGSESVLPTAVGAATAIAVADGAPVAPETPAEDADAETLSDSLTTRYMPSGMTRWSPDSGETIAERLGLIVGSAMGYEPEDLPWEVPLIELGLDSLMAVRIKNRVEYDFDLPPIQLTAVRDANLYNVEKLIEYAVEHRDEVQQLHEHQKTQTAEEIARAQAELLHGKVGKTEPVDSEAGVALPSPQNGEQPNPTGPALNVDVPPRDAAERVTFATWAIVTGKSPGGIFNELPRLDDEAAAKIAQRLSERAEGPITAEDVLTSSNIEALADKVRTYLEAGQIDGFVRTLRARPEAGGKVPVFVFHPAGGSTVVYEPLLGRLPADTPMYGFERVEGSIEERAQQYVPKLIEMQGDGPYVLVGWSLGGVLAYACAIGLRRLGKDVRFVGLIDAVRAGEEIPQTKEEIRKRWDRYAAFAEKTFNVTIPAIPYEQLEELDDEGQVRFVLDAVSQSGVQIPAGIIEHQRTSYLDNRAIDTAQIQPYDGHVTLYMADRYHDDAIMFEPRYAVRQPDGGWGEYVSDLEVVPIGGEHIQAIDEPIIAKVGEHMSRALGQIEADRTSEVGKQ

The values are deposited in ChEMBL (CHEMBL3988442, “University of Dundee, Small-Polar-MMV Screening Library” (2021)).

Results are given as percent effect. The record does not define 0% and 100%; most values in the screen are far below 50% and negative numbers occur (in some assays of this library far below -100). The compounds are a random part of those screened. Two or more numbers in one place are separate tests of the same structure; such repeats can differ widely. A dash means the value is not listed here; it may have been measured.

A: 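Protease assay of ClpP1P2, read by the AMC dye that it sets free. Target: ClpP1P2, Mycobacterium tuberculosis (UniProt P9WPC5 and UniProt P9WPC3). Concentration: 50 µM. Direction is inferred from only a few compounds that gave an IC50; most scored high, so higher reads as stronger inhibition. Most other retested compounds had strongly negative values. Size under these conditions: about 69,000 compounds, about 10 of them at 50% or above in at least one test.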
B: 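Histidine-tRNA ligase, Trypanosoma cruzi CL Brener (UniProt Q4DA54). Enzyme assay of histidyl-tRNA synthetase; the read-out is not stated. Compounds at 30 µM. The record gives no direction; compounds that gave an IC50 in retests scored well above the rest, so higher reads as stronger inhibition. Size under these conditions: about 69,000 compounds, about 31 of them at 50% or above in at least one test.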
C: 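Lysine-tRNA ligase, Plasmodium falciparum 3D7 (UniProt Q8IDJ8). Enzyme assay of the cytosolic lysyl-tRNA synthetase in 384-well plates, read by luminescence. Compounds at 30 µM. Higher reads as stronger inhibition, judged from the few compounds that gave an IC50. About 69,000 compounds were tested under these conditions; 0.071% (about 49) showed 50% or more at least once.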
D: 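Coenzyme A biosynthesis protein CoaBC, Mycobacterium tuberculosis (UniProt P9WNZ1). Enzyme assay of CoaBC with a phosphate dye (Biomol Green) read at 650 nm. Concentration: 30 µM. Higher reads as stronger inhibition, judged from the few compounds that gave an IC50. Most strong results did not repeat in a second test. Size under these conditions: about 67,000 compounds, about 40 of them at 50% or above in at least one test.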
E: 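Cell assay of Leishmania donovani living inside macrophages; the read-out is not stated. Concentration: 30 µM. Direction is inferred from retests: higher values go with stronger inhibition. Size under these conditions: about 69,000 compounds, about 1,000 of them at 50% or above in at least one test.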
F: 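Polyketide synthase Pks13, Mycobacterium tuberculosis (UniProt I6X8D2). Enzyme assay of the thioesterase domain of polyketide synthase 13; the read-out is not stated. Tested at 30 µM. Higher reads as stronger inhibition (inferred from which compounds were picked for retests). Of about 67,000 compounds tested this way, about 300 (0.46%) reached 50% or more in at least one test.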

Compound | A | B | C | D | E | F
CN(C)Cc1cn2c(n1)CN(C(=O)Cc1ccsc1)CC2 | -2.157% | 11.06% | -24.52% | 3.069% | - | -11.03%
CC(C)N(C)Cc1cncc2c1CCN(Cc1ccoc1)C2 | -17.27% | 8.466% | 5.463% | 1.728% | - | -0.4255%
CN(Cc1ccccn1)C(=O)CC1CCOc2ccccc21 (stereo not given) | -17.12% | 0% | 4.779% | 2.789% | 9.387% | -17.08%
[H][C@@]12CC[C@H](Oc3ccccc3)[C@]1([H])CN(C(=O)COCC)C2 | - | - | - | - | 10.99% and 15.46% | -
CCN(CC(=O)NC)C(=O)c1cc(-c2cccc(Cl)c2)no1 | -2.197% | -5.051% | 4.655% | 11.67% | -27.3% | 1.699%
FC(F)(F)c1ccnc(N2C[C@H]3CCN(c4cccnc4)C[C@H]3C2)n1 | -15.37% | -2.439% | 3.402% | 6.767% | - | -6.734%
CCc1ocnc1C(=O)N1CCC2(CCCN(CC(C)(C)C)C2=O)C1 (stereo not given) | -2.343% | 7.035% | -0.2884% | 0% | -3.881% | -6.79%
CCn1cnnc1CNC(=O)N1CCC(C(=O)NC)CC1 | 0.3131% | -4.906% | -3.17% | 1.695% | -6.239% | -7.742%
CC(NC(=O)CN1CCN(c2cccc(Cl)c2)CC1)c1ccco1 (stereo not given) | -8.629% | -3.509% | 0.6781% | -4.248% | 19.06% | -22.24%
CC(C)c1nnc2n1CCN(Cc1cccc3c1OCCO3)C2 | -4.567% | 4.348% | -11.74% | 1.284% | -13.62% | -10.73%
CCOC(=O)N(C)C1CCN(Cc2csc(C)n2)CC1 | -6.901% | 4.04% | -1.568% | 1.621% | -4.531% | 20.18%
O=C(c1cccnc1)N1CCC2(CCN(C(=O)N3CCCC3)CC2)C1 | 2.568% | 9.524% | 3.631% | 6.667% | - | -16.19%
O=C(C1CCOCC1)N1CCC2(CC1)CC(Oc1ccccc1)CO2 (stereo not given) | 7.431% | 3.306% | -0.3087% | 11.4% | -12.79% | -8.678%
CC(=O)N1CCCN(C(=O)c2cnc(OC(C)C)c(Cl)c2)CC1 | -26.62% | 5.882% | 6.084% | 1.707% | 26.41% | 15.38%
O=C(CCCn1cccn1)N1C[C@@H](O)[C@H](Oc2cccc(F)c2)C1 | -10.33% | 3.731% | 1.59% | 0.2433% | -9.734% and -3.623% | 15.72%
CCCc1noc(CCC(=O)N2CCCC2c2noc(C3CC3)n2)n1 (stereo not given) | -8.188% | -0.7519% | 7.857% | -2.057% | 19.6% | -52.5%
Cc1ccc(CN2CCc3c(COCC4CC4)nn(C)c3C2)s1 | -11.96% | 1.676% | -0.07797% | 3.03% | - | -43.3%
Cc1cccc(C2CCCN2S(=O)(=O)N(C)C)n1 (stereo not given) | -5.479% | 1.099% | 3.937% | 1.456% | 3.747% and 9.85% | -204.9%
COc1cccc(CNC(=O)c2nc3c(o2)CN(C(=O)N(C)C)C3)c1 | 1.135% | -128.8% | 6.463% | - | 25.1% | -
c1ccc(COCC2CN(Cc3ccsc3)Cc3nccn3C2)nc1 (stereo not given) | -7.392% | 10.92% | 2.873% | 2.231% | 5.744% | -1.742%
Cc1nc(-c2c(C)noc2C)cc(C2CCN(CC(=O)N(C)C)CC2)n1 | -5.739% | 4.215% | -0.1708% | 2.871% | 31.09% | 5.692%
Cc1nc(N2CCCC2)nc2c1CCN(C(=O)C(C)C)CC2 | 0.4757% | 2.439% | 1.102% | 5.013% | -2.631% | 15.23%
CC(C)n1c(=O)c2ccccc2n(CCCN(C)C)c1=O.Cl | - | - | - | - | -9.627% | -
COc1cccc(CN2CCC3(CC2)CCN(C(=O)[C@@H]2CCCO2)C3)c1 | -2.923% | 8.173% | 6.698% | 4.235% | - | -14.28%
O=C(C1SCCc2sccc21)N1CCC(O)CC1 (stereo not given) | -10.91% | -0.5348% | 8.201% | -0.6211% | 13% | -9.172%
COCC1CN(c2ccc(C)nn2)Cc2cnn(C)c21 (stereo not given) | 6.048% | 5.556% | 2.219% | 4.39% | - | -3.892%
O=C(O)C(F)(F)F.[H][C@@]12CN(CC(C)C)C[C@]1([H])C(=O)N(CC)C21CCN(C(=O)NC(C)C)CC1 | - | - | - | - | 29.74% and 7.32% | -
Cc1cccc(C(=O)N2CCn3cnc(COCC4CC4)c3C2)c1 | -2.957% | 7.527% | 1.424% | 10.74% | 14.38% and 12.7% | -35.55%
CCO[C@H]1CCN(S(=O)(=O)c2cn(C)cn2)[C@H]1Cc1ccccc1.O=C(O)C(F)(F)F | - | - | - | - | 13.67% | -
COc1ccc(Nc2c[nH]c(=O)[nH]c2=O)cc1 | -1.004% | -2.591% | -5.368% | 11.46% | 40.66% | 7.689%
CC1CCN(S(=O)(=O)N2Cc3ccccc3C[C@H]2C(N)=O)CC1 | 11.11% | 14.85% | 2.152% | 0.7282% | 15.34% | 2.847%
[H][C@]12CC[C@]([H])(CN(C(=O)c3ccccn3)C1)N(C(=O)CCc1ccsc1)C2 | - | - | - | - | 9.093% | -
Cc1ccc2c(c1)C1(CC(=O)Nc3[nH]ncc31)C(=O)N2C (stereo not given) | -21.08% | 3.659% | 4.854% | 2.785% | 13.24% and 7.191% | -4.815%
CO[C@H]1CN(c2ccccc2)S(=O)(=O)[C@@]12CCN(Cc1ccccc1)C2 | -10.39% | 2.247% | -0.5317% | -1.453% | -15.92% | -19.03%
COC(=O)N1CCN(C(=O)c2ccc(C)c(N3CCNC3=O)c2)CC1 | 8.853% | 4.469% | 3.982% | -3.085% | -6.926% | -8.355%
Cc1nc(N2CCCC2)nc(C)c1NS(C)(=O)=O | -9.974% | 2.062% | 2.116% | -1.903% | 13.63% and 2.816% | -9.22%
CCn1ncnc1C(C)NC(=O)Cc1cc2c(cc1Cl)OCCO2 (stereo not given) | -3.63% | 11.39% | 0% | -4.567% | 10.09% | 5.086%
CCn1ccnc1CNCc1ccc(C)cc1OC(C)(C)C | -20.88% | 0.8696% | 5.001% | 43.29% and -2.116% | 31.28% | -17.87%
Cc1ncsc1CCN(C)C(=O)CN1CCCCCC1=O | -11.58% | 5.056% | 3.692% | 3.421% | 10.62% | -27.92%
COc1ccc(S(=O)(=O)N2CCC(OCc3ccccn3)C2)cc1Br (stereo not given) | -2.147% | 15.79% | 0.1739% | - | 12.42% | -35.8%
Cc1cccc(S(=O)(=O)NCC(C)(C)CC(C)O)c1C#N (stereo not given) | -2.393% | 5.82% | 6.335% | -5.295% | 29.57% | -17.64%
Cn1cc(N)c(-c2nnc3n2CCCC3)n1 | -4.942% | 1.156% | 4.198% | -1.84% | -13.66% | 11.71%
CCc1c(C)nn2c(O)cc(C3CCN(C(=O)c4ccccn4)C3)nc12 (stereo not given) | -9.683% | 2.26% | -0.07682% | 18.4% | 16.49% | -6.707%
Cc1ccc(CN2CCc3[nH]nc(C(=O)N(C)C)c3C2)s1.O=C(O)C(F)(F)F.O=C(O)C(F)(F)F | - | - | - | - | 0.6639% | -
COC(=O)c1ccc(N2CCN(C(=O)c3cnccn3)C(C)C2)cc1 (stereo not given) | 0.3719% | 6.433% | -1.859% | 6.888% | -10.32% | 6.263%
CC(C)c1nccc(N2CCN(CC(=O)N3CCOCC3)CC2)n1 | 15.04% | 4.624% | -1.085% | 6.128% | 21.16% | -12.71%
CCCOc1ccc(NC(=O)NCCC(=O)N(C)C)cc1Cl | 2.853% | -4.132% | 0.313% | 4.051% | 26.7% | 3.807%

Repeated from the top, 6 entries:

{"compound": "CN(C)Cc1cn2c(n1)CN(C(=O)Cc1ccsc1)CC2", "A": -2.157, "B": 11.06, "C": -24.52, "D": 3.069, "F": -11.03}
{"compound": "CC(C)N(C)Cc1cncc2c1CCN(Cc1ccoc1)C2", "A": -17.27, "B": 8.466, "C": 5.463, "D": 1.728, "F": -0.4255}
{"compound": "CN(Cc1ccccn1)C(=O)CC1CCOc2ccccc21", "stereo": "stereo not given", "A": -17.12, "B": 0, "C": 4.779, "D": 2.789, "E": 9.387, "F": -17.08}
{"compound": "[H][C@@]12CC[C@H](Oc3ccccc3)[C@]1([H])CN(C(=O)COCC)C2", "E": "10.99 and 15.46"}
{"compound": "CCN(CC(=O)NC)C(=O)c1cc(-c2cccc(Cl)c2)no1", "A": -2.197, "B": -5.051, "C": 4.655, "D": 11.67, "E": -27.3, "F": 1.699}
{"compound": "FC(F)(F)c1ccnc(N2C[C@H]3CCN(c4cccnc4)C[C@H]3C2)n1", "A": -15.37, "B": -2.439, "C": 3.402, "D": 6.767, "F": -6.734}